Test results from patent US8110687B2, “Bicyclic compounds with kinase inhibitory activity” (Millennium Pharmaceuticals, Inc., priority 2005, dated 2012).
Like-named read-outs stand apart in the source and are kept apart here. Some of these results come from one statement about several compounds together.

Protein sequences, listed by entry. Tags and fused reporters are not part of them.
UniProt P15056, whole entry, stated change not applied: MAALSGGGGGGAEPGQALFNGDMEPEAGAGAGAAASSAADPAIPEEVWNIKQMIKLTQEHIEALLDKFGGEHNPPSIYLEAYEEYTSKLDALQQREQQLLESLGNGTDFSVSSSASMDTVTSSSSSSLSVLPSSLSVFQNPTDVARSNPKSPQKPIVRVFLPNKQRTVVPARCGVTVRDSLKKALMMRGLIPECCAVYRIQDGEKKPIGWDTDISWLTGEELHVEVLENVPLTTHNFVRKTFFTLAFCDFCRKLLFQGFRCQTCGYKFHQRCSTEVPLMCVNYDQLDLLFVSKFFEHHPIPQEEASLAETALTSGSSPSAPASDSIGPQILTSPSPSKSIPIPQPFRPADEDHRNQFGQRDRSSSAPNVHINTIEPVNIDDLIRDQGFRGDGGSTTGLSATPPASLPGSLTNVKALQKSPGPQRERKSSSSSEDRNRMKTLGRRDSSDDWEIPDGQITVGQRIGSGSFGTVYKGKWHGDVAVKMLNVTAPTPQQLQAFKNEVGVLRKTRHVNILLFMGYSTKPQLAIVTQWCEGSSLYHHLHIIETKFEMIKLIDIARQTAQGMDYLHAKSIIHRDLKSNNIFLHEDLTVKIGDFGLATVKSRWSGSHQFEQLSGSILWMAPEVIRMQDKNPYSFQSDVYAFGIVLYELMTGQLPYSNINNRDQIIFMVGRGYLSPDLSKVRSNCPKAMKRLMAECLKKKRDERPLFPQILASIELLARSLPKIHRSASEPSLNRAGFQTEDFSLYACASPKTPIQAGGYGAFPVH

Biological target: B-Raf (V599E or Wild Type) (Homo sapiens, UniProt P15056)
Assay: B-Raf Flash Plate assay
Format: biochemical
Conditions: Peptide 118, 0.5 μM ATP, 60 minutes
[1] = read-out: IC50, inhibition of the enzyme in B-Raf Flash Plate assay
[2] = read-out: IC50 in B-Raf Flash Plate assay

SMILES | IC50 [1] [nM] | IC50 [2] [nM]
CC1CN=C(c2cc(Oc3ccc4ncc(C(=O)Nc5cc(OCCN6CCCC6)cc(C(F)(F)F)c5)cc4c3)ccn2)N1 (stereo not drawn) [Compound I-218, 6-{[2-(5-methyl-4,5-dihydro-1H-imidazol-2-yl)pyridin-4-yl]oxy}-N-[3-(2-pyrrolidin-1-ylethoxy)-5-(trifluoromethyl)phenyl]quinoline-3-carboxamide] | ≤ 1000 | < 50
CNC(=O)c1cc(Oc2ccc3ccc(C(=O)Nc4cccc(C(C)(C)C)c4)cc3c2)ccn1 [Compound I-288, 4-[(7-{[(3-tert-butylphenyl)amino]carbonyl}-2-naphthyl)oxy]-N-methylpyridine-2-carboxamide] | ≤ 1000 | < 50
CC(C)(C)c1cccc(NC(=O)C2CCc3ccc(Oc4ccnc(C(=N)N5CCNCC5)c4)cc3C2)c1 (stereo not drawn) [Compound I-280, N-(3-tert-butylphenyl)-7-({2-[imino(piperazin-1-yl)methyl]pyridin-4-yl}oxy)-1,2,3,4-tetrahydronaphthalene-2-carboxamide] | ≤ 1000 | < 50
O=C(Nc1ccc(Cl)c(C(F)(F)F)c1)C1=Cc2cc(Oc3ccnc(C4=NCCN4)c3)ccc2OC1 [Compound I-10, N-[4-chloro-3-(trifluoromethyl)phenyl]-6-{[2-(4,5-dihydro-1H-imidazol-2-yl)pyridin-4-yl]oxy}-2H-chromene-3-carboxamide] | ≤ 1000 | < 50
CC(=O)Nc1cc(Oc2ccc3c(c2)CC(C(=O)Nc2cc(CN4CC[C@@H](O)C4)cc(C(F)(F)F)c2)CC3)ccn1 (stereo partly drawn) [Compound I-399, 7-{[2-(acetylamino)pyridin-4-yl]oxy}-N-[3-{[(3R)-3-hydroxypyrrolidin-1-yl]methyl}-5-(trifluoromethyl)phenyl]-1,2,3,4-tetrahydronaphthalene-2-carboxamide] | ≤ 1000 | < 50
CNC(=O)c1cc(Oc2ccc3c(c2)CC(C(=O)Nc2cc(CNC(=O)OC)cc(C(F)(F)F)c2)CC3)ccn1 (stereo not drawn) [Compound I-352, methyl [3-({[7-({2-[(methylamino)carbonyl]pyridin-4-yl}oxy)-1,2,3,4-tetrahydronaphthalen-2-yl]carbonyl}amino)-5-(trifluoromethyl)benzyl]carbamate] | ≤ 1000 | < 50
Nc1cc(NC(=O)c2ccc3ccc(Oc4ccnc(C5=NCCN5)c4)cc3c2)cc(C(F)(F)F)c1 [Compound I-14, N-[3-amino-5-(trifluoromethyl)phenyl]-7-{[2-(4,5-dihydro-1H-imidazol-2-yl)pyridin-4-yl]oxy}-2-naphthamide] | ≤ 1000 | < 50
CC(C)(C)c1cccc(NC(=O)c2ccc3ccc(Oc4ccnc(C(=N)N5CCOCC5)c4)cc3c2)c1 [Compound I-99, N-(3-tert-butylphenyl)-7-({2-[imino(morpholin-4-yl)methyl]pyridin-4-yl}oxy)-2-naphthamide] | ≤ 1000 | < 50
CC(=O)Nc1cc(Oc2ccc3c(c2)CC(C(=O)Nc2cc(OC[C@H](O)CO)cc(C(F)(F)F)c2)CC3)ccn1 (stereo partly drawn) [Compound I-412, 7-{[2-(acetylamino)pyridin-4-yl]oxy}-N-[3-{[(2R)-2,3-dihydroxypropyl]oxy}-5-(trifluoromethyl)phenyl]-1,2,3,4-tetrahydronaphthalene-2-carboxamide] | ≤ 1000 | < 50
CNC(=O)c1cc(Oc2ccc3ncc(C(=O)Nc4cc(CN)cc(C(F)(F)F)c4)cc3c2)ccn1 [Compound I-308, N-[3-(aminomethyl)-5-(trifluoromethyl)phenyl]-6-({2-[(methylamino)carbonyl]pyridin-4-yl}oxy)quinoline-3-carboxamide] | ≤ 1000 | < 50
CC(=O)NCc1cc(Oc2ccc3c(c2)CC(C(=O)Nc2cccc(C(C)(C)C)c2)CC3)ccn1 (stereo not drawn) [Compound I-246, 7-({2-[(acetylamino)methyl]pyridin-4-yl}oxy)-N-(3-tert-butylphenyl)-1,2,3,4-tetrahydronaphthalene-2-carboxamide] | ≤ 1000 | < 50
CC(=O)Nc1cc(Oc2ccc3c(c2)CC(C(=O)Nc2cccc(C(C)C)c2)CC3)ccn1 (stereo not drawn) [Compound I-247, 7-{[2-(acetylamino)pyridin-4-yl]oxy}-N-(3-isopropylphenyl)-1,2,3,4-tetrahydronaphthalene-2-carboxamide] | ≤ 1000 | < 50
O=C(Nc1cccc(C(F)(F)F)c1)C1CCc2ccc(Oc3ccnc(C4=NCCN4)c3)cc2C1 (stereo not drawn) [Compound I-2, 7-{[2-(4,5-dihydro-1H-imidazol-2-yl)pyridin-4-yl]oxy}-N-[3-(trifluoromethyl)phenyl]-1,2,3,4-tetrahydronaphthalene-2-carboxamide] | ≤ 1000 | –
O=C(Nc1cc(CO)cc(C(F)(F)F)c1)C1CCc2ccc(Oc3ccnc(NC(=O)C4CC4)c3)cc2C1 (stereo not drawn) [Compound I-206, 7-({2-[(cyclopropylcarbonyl)amino]pyridin-4-yl}oxy)-N-[3-(hydroxymethyl)-5-(trifluoromethyl)phenyl]-1,2,3,4-tetrahydronaphthalene-2-carboxamide] | ≤ 1000 | < 50
CC(C)(C)c1cccc(NC(=O)[C@H]2CCc3ccc(Oc4ccnc(C5=NCCN5)c4)cc3C2)c1 [Compound I-40, (2S)-N-(3-tert-butylphenyl)-7-{[2-(4,5-dihydro-1H-imidazol-2-yl)pyridin-4-yl]oxy}-1,2,3,4-tetrahydronaphthalene-2-carboxamide] | ≤ 1000 | –
CNC(=O)c1cc(Oc2ccc3c(c2)CC(C(=O)Nc2cc(CNCCC(N)=O)cc(C(F)(F)F)c2)CC3)ccn1 (stereo not drawn) [Compound I-230, 4-{[7-({[3-{[(3-amino-3-oxopropyl)amino]methyl}-5-(trifluoromethyl)phenyl]amino}carbonyl)-5,6,7,8-tetrahydronaphthalen-2-yl]oxy}-N-methylpyridine-2-carboxamide] | ≤ 1000 | < 50
CC(=O)Nc1cc(Oc2ccc3ccc(C(=O)Nc4ccc(CN)c(C(F)(F)F)c4)cc3c2)ccn1 [Compound I-151, 7-{[2-(acetylamino)pyridin-4-yl]oxy}-N-[4-(aminomethyl)-3-(trifluoromethyl)phenyl]-2-naphthamide] | ≤ 1000 | < 50
CC(C)(C)c1cccc(NC(=O)C2=Cc3cc(Oc4ccnc(NC(=O)OC[C@@H](O)CO)c4)ccc3OC2)c1 [Compound I-401, (2S)-2,3-dihydroxypropyl {4-[(3-{[(3-tert-butylphenyl)amino]carbonyl}-2H-chromen-6-yl)oxy]pyridin-2-yl}carbamate] | ≤ 1000 | < 50
O=C(Nc1ccc(Cl)c(C(F)(F)F)c1)C1Cc2cc(Oc3ccnc(C4=NCCN4)c3)ccc2CN1 (stereo not drawn) [Compound I-54, N-[4-chloro-3-(trifluoromethyl)phenyl]-6-{[2-(4,5-dihydro-1H-imidazol-2-yl)pyridin-4-yl]oxy}-1,2,3,4-tetrahydroisoquinoline-3-carboxamide] | ≤ 1000 | –
NCc1cc(NC(=O)C2CCc3ccc(Oc4cc[n+]([O-])c(-n5cccn5)c4)cc3C2)cc(C(F)(F)F)c1 (stereo not drawn) [Compound I-304, N-[3-(aminomethyl)-5-(trifluoromethyl)phenyl]-7-{[1-oxido-2-(1H-pyrazol-1-yl)pyridin-4-yl]oxy}-1,2,3,4-tetrahydronaphthalene-2-carboxamide] | ≤ 1000 | –
CC(C)(C)c1cccc(NC(=O)[C@@H]2CCc3ccc(Oc4ccnc(C5=NCCN5)c4)cc3C2)c1 [Compound I-38, (2R)-N-(3-tert-butylphenyl)-7-{[2-(4,5-dihydro-1H-imidazol-2-yl)pyridin-4-yl]oxy}-1,2,3,4-tetrahydronaphthalene-2-carboxamide] | ≤ 1000 | –
CN1CCN(C(=O)c2c[nH]c(-c3cc(Oc4ccc5c(c4)CC(C(=O)Nc4cccc(C(C)(C)C)c4)CC5)ccn3)n2)CC1 (stereo not drawn) [Compound I-154, N-(3-tert-butylphenyl)-7-[(2-{4-[(4-methylpiperazin-1-yl)carbonyl]-1H-imidazol-2-yl}pyridin-4-yl)oxy]-1,2,3,4-tetrahydronaphthalene-2-carboxamide] | ≤ 1000 | < 50
CC(C)(C)c1cccc(NC(=O)C2CCc3ccc(Oc4ccnc(-c5nc(C(=O)O)c[nH]5)c4)cc3C2)c1 (stereo not drawn) [Compound I-155, 2-{4-[(7-{[(3-tert-Butylphenyl)amino]carbonyl}-5,6,7,8-tetrahydronaphthalen-2-yl)oxy]pyridin-2-yl}-1H-imidazole-4-carboxylic acid] | ≤ 1000 | < 50
CC(C)(C)c1cccc(NC(=O)C2CCc3ccc(Oc4ccnc(NC(=O)CN5CCOCC5)c4)cc3C2)c1 (stereo not drawn) [Compound I-419, N-(3-tert-butylphenyl)-7-({2-[(morpholin-4-ylacetyl)amino]pyridin-4-yl}oxy)-1,2,3,4-tetrahydronaphthalene-2-carboxamide] | ≤ 1000 | < 50
CC(C)(C)c1cccc(NC(=O)C2CCc3ccc(Oc4ccnc(C(=N)N5CCOCC5)c4)cc3C2)c1 (stereo not drawn) [Compound I-265, N-(3-tert-butylphenyl)-7-({2-[imino(morpholin-4-yl)methyl]pyridin-4-yl}oxy)-1,2,3,4-tetrahydronaphthalene-2-carboxamide] | ≤ 1000 | < 50
CC(C)(C)c1cccc(NC(=O)C2CCc3ccc(Oc4ccnc(NS(C)(=O)=O)c4)cc3C2)c1 (stereo not drawn) [Compound I-254, N-(3-tert-butylphenyl)-7-({2-[(methylsulfonyl)amino]pyridin-4-yl}-oxy)-1,2,3,4-tetrahydronaphthalene-2-carboxamide] | ≤ 1000 | < 50
NCc1cc(NC(=O)C2CCc3ccc(Oc4ccnc(-c5nc(CN6CCCC6)c[nH]5)c4)cc3C2)cc(C(F)(F)F)c1 (stereo not drawn) [Compound I-189, N-[3-(aminomethyl)-5-(trifluoromethyl)phenyl]-7-({2-[4-(pyrrolidin-1-ylmethyl)-1H-imidazol-2-yl]pyridin-4-yl}oxy)-1,2,3,4-tetrahydronaphthalene-2-carboxamide] | ≤ 1000 | < 50
NCc1cc(NC(=O)C2CCc3ccc(Oc4ccnc(-c5cn[nH]c5)c4)cc3C2)cc(C(F)(F)F)c1 (stereo not drawn) [Compound I-252, N-[3-(aminomethyl)-5-(trifluoromethyl)phenyl]-7-{[2-(1H-pyrazol-4-yl)-pyridin-4-yl]oxy}-1,2,3,4-tetrahydronaphthalene-2-carboxamide] | ≤ 1000 | < 50
